Test results from patent US7462362B2, “Antifungal nail coat and method of use” (NexMed Holdings, Inc., priority 2003, dated 2008).
At least one compound was matched to its structure with a doubt left.

Columns and labels:
[1] = test system: T. mentagrophytes, (ATCC 24953); assay: MFC assay by subculturing the microtiter wells from the MIC test; format: cell-based, Trichophyton mentagrophytes; settings: lowest concentration to produce 1-2 colonies
Description: Dermatophyte isolates are subcultured onto Potato Dextrose Agar (PDA) and incubated at a temperature of about 30° C. for a period of about 4 to about 5 days or until good conidiation is produced. T rubrum isolates are subcultured onto cereal (oatmeal) agar instead of PDA in order to induce conidia production. A suspension of conidia in sterile saline is made by gently swabbing the colony surface with a sterile swab. The suspension is allowed to settle for about 5 to about 10 minutes and the conidia is counted using a hemocytometer. Working suspensions of conidia are prepared in 10 ml RPMI 1604 (Difco Laboratories) medium to a final concentration of 1 to 3×10^3 CFU/ml. Yeast controls are subcultured onto PDA and incubated at a temperature of about 35° C. for about 48 hours. Yeast inocula are prepared to a final concentration of 0.5 to 2.5×10^3 CFU/ml. For MIC assay, each drug concentration well and growth control well is inoculated with 100 microliters of cell suspension, and the final volume in each microtiter well is 200 microliters. The dermatophyte plates are incubated at a temperature of about 35° C. for 4 days (yeast controls for 48 hours). […]
MIC assay was determined using the broth dilution procedure described in Example 8 performed in microtiter wells with RPMI 1604 as the diluent. […] The zone of inhibition size was measured (diameter of area remaining clear, i.e., lacking growth).

[2] = test system: T. mentagrophytes, (ATCC 24953); assay: Modified NCCLS M38-A broth microdilution MIC assay; format: cell-based, Trichophyton mentagrophytes; settings: 80% growth inhibition, RPMI diluent, 35° C., 4 days
Source text: The broth microdilution method was a modification of a NCCLS M38-A standard method for the susceptibility testing of conidium-forming filamentous fungi of the National Committee for Clinical Laboratory Standards (NCCLS). The modified method was developed at the Center for Medical Mycology, University Hospitals of Cleveland, Cleveland, Ohio, based on the method described in Jessup, et al., “Antifungal Susceptibility Testing of Dermatophytes: Establishing a Medium for Inducing Conidial Growth and Evaluation of Susceptibility of Clinical Isolates,” Journal of Clinical Microbiology, 38, 341-344, published by the American Society for Microbiology (2000), the disclosures of which are incorporated herein by reference. Based on a multicenter study of the reproducibility of the modified method for testing dermatophytes, adoption of the modified method as an amendment to the NCCLS M38-A standard has been proposed. […]
Dermatophyte isolates are subcultured onto Potato Dextrose Agar (PDA) and incubated at a temperature of about 30° C. for a period of about 4 to about 5 days or until good conidiation is produced. […] The suspension is allowed to settle for about 5 to about 10 minutes and the conidia is counted using a hemocytometer. […]
MIC assay was determined using the broth dilution procedure described in Example 8 performed in microtiter wells with RPMI 1604 as the diluent. […]

CCCCCCCCCCCCOC(=O)C(C)N(C)C.Cl (centres unmarked) [9(E), dodecyl-2-(N,N-dimethylamino) isopropionate hydrochloride]
MFC, Dilution (Composition:Diluent) [1]: 1:4 | MIC, Dilution (Composition:Diluent) [2]: 1:32
